Results are given in words; binding and its absence hold for the method and conditions named. Binding seen in cells or lysates may run through a third protein. Some results given as binding are weak or reduced against the parent protein; the word gives no strength. Sequences can lack the tags named with a protein.
Experiments:
[1] = molecular target: c-Abl (expressed from c-ABL cDNA in COS1 cells) (UniProt P00519); assay: co-expression / co-immunoprecipitation in COS1 cells
[2] = molecular target: c-Abl (expressed from c-ABL cDNA in COS1 cells) (UniProt P00519); assay: co-immunoprecipitation from COS1 cells co-transfected with FUS1 and c-ABL

Amino acid sequences for entries named in this document (tags omitted).
UniProt P00519: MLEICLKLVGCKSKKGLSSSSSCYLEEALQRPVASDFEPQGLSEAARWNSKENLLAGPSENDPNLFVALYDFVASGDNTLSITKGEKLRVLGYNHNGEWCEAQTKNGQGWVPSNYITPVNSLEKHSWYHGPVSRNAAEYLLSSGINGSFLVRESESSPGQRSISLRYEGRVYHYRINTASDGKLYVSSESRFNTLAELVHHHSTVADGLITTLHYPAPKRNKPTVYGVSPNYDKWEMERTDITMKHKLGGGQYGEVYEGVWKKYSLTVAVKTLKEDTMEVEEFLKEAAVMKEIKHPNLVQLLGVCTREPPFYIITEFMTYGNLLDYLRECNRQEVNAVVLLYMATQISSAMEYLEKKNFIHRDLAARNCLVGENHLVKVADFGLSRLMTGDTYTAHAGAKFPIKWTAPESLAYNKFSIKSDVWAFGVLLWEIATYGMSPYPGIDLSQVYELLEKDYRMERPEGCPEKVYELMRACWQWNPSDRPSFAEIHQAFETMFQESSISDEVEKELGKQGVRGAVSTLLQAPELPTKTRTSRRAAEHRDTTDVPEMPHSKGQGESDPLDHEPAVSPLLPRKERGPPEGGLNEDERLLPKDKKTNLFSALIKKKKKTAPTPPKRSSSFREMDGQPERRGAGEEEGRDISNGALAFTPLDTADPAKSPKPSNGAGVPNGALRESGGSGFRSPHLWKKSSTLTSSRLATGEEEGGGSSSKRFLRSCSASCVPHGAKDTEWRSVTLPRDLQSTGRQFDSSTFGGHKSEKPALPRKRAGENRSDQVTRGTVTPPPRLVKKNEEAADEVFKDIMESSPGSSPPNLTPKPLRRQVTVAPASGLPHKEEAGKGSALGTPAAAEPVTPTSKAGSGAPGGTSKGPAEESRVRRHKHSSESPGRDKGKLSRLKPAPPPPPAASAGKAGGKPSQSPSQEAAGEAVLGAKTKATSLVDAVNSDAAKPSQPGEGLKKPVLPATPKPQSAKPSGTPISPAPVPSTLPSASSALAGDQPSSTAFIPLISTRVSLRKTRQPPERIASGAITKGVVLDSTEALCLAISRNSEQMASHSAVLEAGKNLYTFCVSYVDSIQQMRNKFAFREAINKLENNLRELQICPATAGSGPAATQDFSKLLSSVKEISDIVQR

binding [1]: binds
binding [2]: binds
B1: wild type Fus1 protein (protein)
chain: GASGSKARGLWPFASAAGGGGSEAAGAEQALVRPRGRAVPPFVFTRRGSMFYDEDGDLAHEFYEETIVTKNGQKRAKLRRVHKNLIPQGIVKLDHPRIHVDFPVILYEV

Source: patent US20060251726A1
